Laboratory results published in PubChem BioAssay AID1259415 (National Center for Advancing Translational Sciences (NCATS), 2018).
Screen size: about 410,000 compounds; about 18,000 (4.4%) were called active. This list was built around the results that the source calls inconclusive (neither active nor inactive); the mix of calls is not that of the screen. No stated cut-off is given here; in the data, active means activity change below about -60%; inconclusive means no clear call, values can overlap the other calls; inactive means above about -39%. Some compounds were tested as several samples or in several runs, with calls that do not always agree.

Assay: qHTS Assay for inhibitors of the human cytomegalovirus (HCMV)
Details: HFF cells, HCMV-luciferase reporter, 72 h; at 57.5 µM; hits give low values
Text: NCGC Assay Overview: Infection with human cytomegalovirus (HCMV) continues to pose significant threats for pregnant women and immunocompromised hosts. HCMV causes serious morbidity and mortality in transplant recipients, and congenital HCMV is the leading infectious cause of mental retardation and deafness in children. In the 1990s, the annual costs associated with the disease burden of congenital CMV were estimated at around $2 billion. A HCMV vaccine is not available yet and HCMV therapies result in intolerable side effects and emergence of drug resistant viruses. […] Towards this goal we have developed and characterized a luciferase HCMV reporter that was initially used in 96 well plates and then optimized to 1536-well plates for utilization in screening of the MLSMR collection, the NGCG diversity collection and the NCGC Pharmaceutical Collection of approved and investigational drugs.
NCGC Assay Protocol Summary:
This is a cell-based assay for HCMV inhibition in HFFs cells. The screening used 2 compound doses and the HCMV-luciferase at MOI of 1 PFU/cell. Cells were treated and infected with HCMV. At 72 h post infection cell lysates were collected and luciferase activity was determined using the Glomax-Multi + Detection System (Promega, Madison, WI). Data were normalized to the controls for basal activity (buffer only) and known HCMV inhibitors Salinmoycin.
1536-well assay protocol for the assay:
(1) Add 3 ul CMV/HFF cell culture. 1000 cells/well in DMEM nirmal media.
(2) Incubate 16 hr at 37C.
(3) Add 23 nl control compound, 10uM of Salinomycin.
(4) Add 23 nl compounds in DMSO solution.
(5) Add 3 ul CMV suspension. Final 1 puf/ul, Virus stock 2000pfu/ul
(6) Incubate 72 hrs at 37C.
(7) Add 4 ul OneGlo Luc Reagent.
(8) Incubate 5 min at room temperature.
On the % scale 0 is the no-effect control and ±100 the full control effect.

Row | Structure (SMILES) | activity change, negative = inhibition
1 | COc1ccc(C(=O)C2CCCN(Cc3cccn3-c3ccccn3)C2)c(C)c1 (stereo unspecified) | inconclusive: -47.9%
2 | C=Cn1ccnc1CC(O)c1ccc(OC)cc1 (stereo unspecified) | inconclusive: -40%
3 | COc1ccccc1CNC(=O)c1cc(S(=O)(=O)N2CCCC(C)C2)cn1C (stereo unspecified) | inactive: 14.9%
4 | CCc1ccc(CN2CCN(Cc3ccc(SC)cc3)CC2)cc1 | inconclusive: -41.9%
5 | O=C(NC1CCCCC1)C(c1ccnc2ccccc12)n1c(=O)c(-c2ccccc2)nc2ccccc21 (stereo unspecified) | inconclusive: -42%
6 | O=C1c2cccc(OCC(=O)N3N=C(c4cccs4)CC3c3ccc(F)cc3)c2CCN1Cc1cccnc1 (stereo unspecified) | inconclusive: -53.8%
7 | CC(=O)c1cccc(NC(=O)Cc2ccc3c(c2)CCCC3)c1 | inconclusive: -53.1%
8 | O=C(Nc1nc2ccc([N+](=O)[O-])cc2s1)c1c(F)cccc1F | inconclusive: -58.6%
9 | COc1cc(OC)c(NC(=O)c2cncn2-c2ccc(F)cc2)cc1Cl | inactive: -17.6%
10 | CC1CCN(S(=O)(=O)c2ccc3c(c2)N(CC(=O)NCCCOC(C)C)C(=O)CS3)CC1 | inconclusive: 0%
11 | COc1ccc(C(C)(C)C)cc1NC(=O)C1CCCO1 (stereo unspecified) | inactive: -36.8%
12 | Cc1sc(NC(=O)CCCC(=O)O)c(C(N)=O)c1-c1ccccc1 | inconclusive: -45.2%
13 | CC(=O)N1c2ccccc2N(Cc2ccc([N+](=O)[O-])cc2)C(=O)C1(C)C | inconclusive: -41%
14 | O=C(NCc1ccco1)c1cc2cc(Br)ccc2o1 | inconclusive: -40.6%
15 | O=C(Nc1ccc2snnc2c1)Nc1cccc2ccccc12 | active: -88.5%
16 | Cc1ccc(CNC(=O)c2c(Nc3ccccc3C)sc(C(=O)c3ccc(F)cc3)c2N)cc1 | active: -75.5%
17 | Cc1ccc(C(=O)N(Cc2ccco2)c2ccccn2)cc1 | inactive: 35.9%
18 | C/C(CC(=O)Nc1ccc(N(C)C)cc1)=N\NC(=O)c1ccncc1 | inactive: -31.6%
19 | c1ccc(-c2cccc(-c3ccccn3)n2)nc1 | active: -101%

Row | Structure (SMILES) | activity change, negative = inhibition
20 | CN(Cc1ccc2ccccc2c1)C(=O)c1ccc(C(F)(F)F)cc1 | active: -62.5%
21 | C=C[C@@H]1c2cc(C)ccc2N(S(=O)(=O)c2ccc(C)cc2)[C@H](c2ccc(OC(C)=O)cc2)C1(C#N)C#N | active: -97.4%
22 | O=C(OCCc1ccccc1)c1cc(O)c(O)c(O)c1 | inconclusive: -52.8%
23 | CC1CC(C)C(=NNC(N)=O)C(C(O)CC2CCC(=O)NC2=O)C1 (stereo unspecified) | inconclusive: -42.2%
24 | CCN1CCN(C(=O)c2cc(COc3ccc4ncccc4c3)on2)CC1 | active: -82.2%
25 | Cc1nnc(SCC(=O)Nc2cc(Cl)ccc2Cl)n1CC1CCCO1 (stereo unspecified) | inactive: 8.94%
26 | CCC1C/C(=C/c2cccs2)C(=O)/C(=C/c2cccs2)C1 (stereo unspecified) | inconclusive: -45.7%
27 | COc1ccc(/C=C/C(=O)Nc2ccc(-n3nncc3-c3ccccc3)cc2)cc1OC | inconclusive: -46.4%
28 | Cc1ccc(-n2c(-c3ccccc3)c[n+]3c2CCC3)cc1 | active: -94.7%
29 | Cc1cc(NC(c2ccc(Cl)cc2)c2ccc3cccnc3c2O)no1 (stereo unspecified) | active: -97.7%
30 | Cc1nc(-c2ccc(C(=O)Nc3ccc(F)cc3)cc2)cs1 | inconclusive: -48.2%
31 | Brc1c(CSc2nncc3ccccc23)nc2ccccn12 | inconclusive: -41.2%
32 | Cc1nn(C)c(C(=O)Nc2ccn(Cc3c(F)c(F)cc(F)c3F)n2)c1[N+](=O)[O-] | inconclusive: -59.4%
33 | NC1(C#Cc2ccc3oc(=O)c(-n4cc(-c5ccsc5)nn4)cc3c2)CCCCC1 | active: -72.5%
34 | COc1cc(NC(=S)N2CCN(S(=O)(=O)c3ccccc3)CC2)cc(OC)c1 | inconclusive: -52.8%
35 | CO[C@@H]1CN(C)C(=O)c2cc(NC(=O)Nc3ccc4c(c3)OCO4)ccc2OC[C@@H](C)N(C)C[C@H]1C | inconclusive: -49.8%
36 | CC(C)CC1C(=O)N(Cc2cn(Cc3ccco3)nn2)CCS(=O)(=O)N1Cc1ccc(-c2ccncc2)cc1 (stereo unspecified) | inconclusive: -41.2%
37 | CCCSc1nnc(NC(=O)Nc2ccc(F)cc2)s1 | active: -104%
38 | Cc1ccc(N(CC2=NCCN2)c2cccc(O)c2)cc1 | active: -65.9%

Row | Structure (SMILES) | activity change, negative = inhibition
39 | O=C(CSc1nc2c(oc3ccccc32)c(=O)n1-c1ccccc1)Nc1ccc(F)c(Cl)c1 | inactive: 12%
40 | CCOc1ccc(-c2noc(CCC(=O)O)n2)cc1 | inconclusive: -57.1%
41 | CC1Cc2ccccc2N1S(=O)(=O)c1cccc(C(=O)NC2CC2)c1 (stereo unspecified) | inconclusive: -42.4%
42 | O=C(CN1C(=O)c2ccccc2S1(=O)=O)c1ccccc1 | active: -65.2%
43 | Cc1ccc(S(=O)(=O)N2CCCCC2)cc1NC(=O)c1ccc2c(c1)OCO2 | inconclusive: -58.8%
44 | COc1ccc(/C=C/C(=O)C2CC2)cc1Cn1nc(C)c([N+](=O)[O-])c1C | inconclusive: -46.5%
45 | Cc1ccc(-c2nc(CN3CCN(c4cnccn4)CC3)c(C)o2)o1 | inactive: -4.69%
46 | COc1cccc(-c2nc(-c3ccc(NC(=O)c4ccncc4)cc3)no2)c1 | inconclusive: -52.3%
47 | CNC(=O)CSc1nc2ccccc2c(=O)n1CCc1ccccc1 | inactive: 28.5%
48 | Cc1ccc(-n2c(=O)c3oc4ccccc4c3n(Cc3cccc(F)c3)c2=O)cc1C | inconclusive: -56.8%
49 | COC(=O)c1ccc(Nc2nc3ccc(C)cc3n3cnnc23)cc1 | inconclusive: -59.2%
50 | COc1ccc(-c2csc(/C(C#N)=C\c3ccc(OC)c([N+](=O)[O-])c3)n2)cc1 | inconclusive: -42.4%
51 | COc1ccccc1Nc1c2c(nc3ccc(NC(=O)c4ccc(N(C)C)cc4)cc13)CCCC2 | active: -101%
52 | CC(C)C1Cc2ccccc2-c2[nH]c(=S)[nH]c(=O)c21 (stereo unspecified) | inconclusive: -55.5%
53 | Cc1cccc(OCCCC(=O)NNC(=O)c2ccccn2)c1 | inactive: 16.9%
54 | COc1ccc(CNc2ncc(-c3ccc(F)cc3)n2C)c2ccccc12 | active: -84.2%
55 | CC(=NNC(=S)N1CC2CCC(CC2)C1)c1cnccn1 | active: -95.8%
56 | Cc1cccc(C)c1NC(=O)C1(N2C(=O)CC2c2ccccc2)CCCCC1 (stereo unspecified) | inconclusive: -40.6%

2 of the compounds above, comma-delimited.
Row,Structure (SMILES),"activity change, negative = inhibition"
49,COC(=O)c1ccc(Nc2nc3ccc(C)cc3n3cnnc23)cc1,inconclusive: -59.2%
50,COc1ccc(-c2csc(/C(C#N)=C\c3ccc(OC)c([N+](=O)[O-])c3)n2)cc1,inconclusive: -42.4%
